Assay results as given in patent publication US20110118181A1.
These are yes or no findings as the source states them, for the method shown. For part of these data: Binding seen in cells or lysates may run through a third protein. Some results given as binding are weak or reduced against the parent protein; the word gives no strength.

Chains of the proteins cited; added tags and fusions are not shown. Lines headed by an entry give the natural chain unless they say otherwise; changes in a name come on top. A line that says so, or that is headed by a name, gives the form on record, which may keep a tag or linker. Residues count along the entry.
UniProt Q8NBP7: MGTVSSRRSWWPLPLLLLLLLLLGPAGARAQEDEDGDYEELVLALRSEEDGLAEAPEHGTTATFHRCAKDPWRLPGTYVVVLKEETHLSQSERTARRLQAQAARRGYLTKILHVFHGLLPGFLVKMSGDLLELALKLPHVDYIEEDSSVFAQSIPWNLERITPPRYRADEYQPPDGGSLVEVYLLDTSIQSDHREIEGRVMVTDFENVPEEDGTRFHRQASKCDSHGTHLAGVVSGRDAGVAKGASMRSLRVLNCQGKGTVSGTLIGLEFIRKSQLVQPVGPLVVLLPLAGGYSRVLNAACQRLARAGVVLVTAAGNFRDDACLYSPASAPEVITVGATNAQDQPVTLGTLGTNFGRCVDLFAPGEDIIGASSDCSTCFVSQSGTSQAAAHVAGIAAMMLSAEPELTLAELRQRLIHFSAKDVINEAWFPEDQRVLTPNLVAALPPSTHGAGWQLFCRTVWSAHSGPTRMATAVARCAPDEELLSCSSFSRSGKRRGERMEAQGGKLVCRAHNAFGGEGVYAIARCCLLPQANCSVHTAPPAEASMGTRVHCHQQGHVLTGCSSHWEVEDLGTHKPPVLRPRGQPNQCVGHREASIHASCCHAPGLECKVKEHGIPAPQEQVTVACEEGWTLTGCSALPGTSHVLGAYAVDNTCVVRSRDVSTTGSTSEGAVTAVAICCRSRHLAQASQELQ
CHRD-V5 (C-terminal Cys-His-rich domain of PCSK9, V5-tagged): residues 455-692 of Q8NBP7

Key:
purified AnxA2-(His)6 = purified AnxA2-(His)6 (UniProt P07355); assay: Far Western blot of purified AnxA2-(His)6
[1] = target: AnxA2-HA (full-length human AnxA2 with C-terminal HA epitope) (human) (UniProt P07355); assay: co-immunoprecipitation with anti-V5; co-expressed p11 did not interfere
[2] = target: CHRD-V5 (C-terminal Cys-His-rich domain of PCSK9, V5-tagged) (human) (UniProt Q8NBP7); assay: summary sentence to FIG. 4E (native forms)
purified PCSK9-(His)6 = purified PCSK9-(His)6 (UniProt Q8NBP7); assay: immunofluorescence of cell surface PCSK9 on CHO-K1 cells overexpressing LDLR, competition
[3] = target: PCSK9-V5 (full-length human PCSK9 with C-terminal V5 tag) (human) (UniProt Q8NBP7); assay: poly-histidine pull-down
[4] = target: PCSK9-V5 (full-length human PCSK9 with C-terminal V5 tag) (human) (UniProt Q8NBP7); assay: poly-histidine pull-down, AnxA2-(His)6 on cobalt chelate beads

Measured: binding

PCSK9-V5 (full-length human PCSK9 with C-terminal V5 tag) (from UniProt Q8NBP7 31-692) (enzyme)
binds: purified AnxA2-(His)6 | [1]

purified AnxA2-(His)6 (from UniProt P07355 1-339)
binds: [2] | purified PCSK9-(His)6 | [3] | [4]
